According to the supplement of paper PMC3334620:
Whole data set: some 33,000 sequences, median “E-score (-0.5 to 0.5)” near -8e-05, cut for the highest 2% near 0.23. Some of the results follow.

These sequences were tested against T1, Nrg2 (UniProt P38082) (assay: PBM E-score (8-mer binding enrichment) (E-score (-0.5 to 0.5)); higher = stronger / more preferred TF binding). Settings: protein concentration: 100 nM; construct: GST-full length.
T1 sequence: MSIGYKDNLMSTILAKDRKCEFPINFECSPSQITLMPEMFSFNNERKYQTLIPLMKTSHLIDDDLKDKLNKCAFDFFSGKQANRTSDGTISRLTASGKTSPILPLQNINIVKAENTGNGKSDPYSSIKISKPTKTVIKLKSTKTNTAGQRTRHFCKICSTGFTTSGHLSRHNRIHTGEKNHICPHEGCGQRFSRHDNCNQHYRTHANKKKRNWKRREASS
How it was run: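 GST-tagged yeast TFs (full-length or DNA-binding domain) were made by PURExpress in vitro transcription/translation and applied at about 100-200 nM to universal all-10-mer Agilent arrays. The arrays were made double-stranded by primer extension, on fresh or once-stripped slides. Bound protein was detected with fluorescent anti-GST, and scans were normalised with masliner. Each ungapped eight-base word, pooled with its reverse complement, received an E-score (modified Wilcoxon-Mann-Whitney statistic) from the Universal PBM Analysis Suite.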

| Sequence | PBM E-score |
| --- | --- |
| ATAGGCCC | -0.0444 |
| AAGTACAC | 0.0484 |
| CTCGTCTA | -0.124 |
| AGAGAGCT | -0.238 |
| CCAGGCCG | 0.022 |
| CGCACATA | -0.115 |
| CAAAAGGA | -0.0703 |
| AGTTGGGG | 0.138 |
| ATTCAAGA | -0.0613 |
| GACGAACA | 0.0883 |
| ATGGGATA | -0.0785 |
| ATCGCATA | -0.0253 |
| GAAAACCA | 0.0315 |
| ATCCAAAT | 0.0165 |
| TGACTCAA | -0.167 |
| ATTCCCAA | 0.0933 |
| CCCTCTTC | -0.169 |
| GCGGGCCC | 0.0657 |
| AGATTCCG | 0.101 |
| GGTCCTTA | 0.176 |
| ACTGCTCA | 0.104 |
| ACATTAAC | 0.0369 |
| AGCGTCCT | -0.255 |
| CTCCTTAC | -0.175 |
| ACGAGGAT | -0.142 |

| Sequence | PBM E-score |
| --- | --- |
| AGTTCCGC | 0.0436 |
| GTTTTTCA | 0.0378 |
| AGTTATAA | -0.0485 |
| ATGTCGTG | -0.0456 |
| CGTACAAG | 0.0307 |
| CGCATGTA | -0.0453 |
| CTAATTCA | 0.0248 |
| ACTGTTAC | 0.0438 |
| AAGCTCGA | 0.0207 |
| ATGTCTGA | 0.0588 |
| CAGTGAAA | 0.0943 |
| ACAGCCGG | 0.0348 |
| ACCAAGCA | -0.00609 |
| CATATTAA | 0.129 |
| CCATTTTC | 0.18 |
| ACCGCCTA | -0.0101 |
| ACAGCACC | -0.119 |
| AGTTATGC | 0.103 |
| GGTTTGGA | 0.0625 |
| GTGAGGGA | -0.00312 |
| TAAGCACA | 0.151 |
| AATTCTGA | -0.0333 |
| GTCCTCAA | -0.0142 |
| CGGGTCCC | -0.125 |
| ATCCCATG | 0.0795 |

Retrieved one by one from the list above:

| Sequence | PBM E-score |
| --- | --- |
| ATTCAAGA | -0.0613 |
| CGCACATA | -0.115 |
| CCATTTTC | 0.18 |
| CATATTAA | 0.129 |
| CGGGTCCC | -0.125 |
| AGATTCCG | 0.101 |

Further results

| Sequence | PBM E-score |
| --- | --- |
| ATGTGCTC | 0.146 |
| GACGCGGA | -0.174 |
| CAACGTCG | 0.0688 |
| CTCAAGGC | 0.0792 |
| ATACACTC | 0.0982 |
| ATCCAGCA | -0.0662 |
| GCGTATAC | -0.083 |
| GGTCAGCA | 0.0136 |
| CCGCATAC | 0.0863 |
| ATGGAGTA | 0.124 |
| AGGAGAAC | -0.0432 |
| CGTTGTAC | -0.0776 |
| AGTCAAAA | 0.00477 |
| CTTCAGGA | -0.142 |
| ACACTTCA | 0.103 |
| CCAGCATA | -0.0394 |
| ATCGGTCC | -0.0258 |
| CCTGATAG | -0.153 |
| GTCTCGGA | 0.141 |
| AGGCTTGC | -0.173 |
| AGAGCTCG | -0.0912 |
| TATGCACA | 0.172 |
| CGCATATA | 0.0344 |
| CCCCCCTA | -0.361 |
| GGCGCGTA | -0.0598 |

| Sequence | PBM E-score |
| --- | --- |
| GATATTCC | 0.0921 |
| TCCTAGGA | -0.0933 |
| ACTTTACC | -0.03 |
| TGGGATAA | -0.066 |
| GAGTCGAA | 0.142 |
| ATGATTCC | 0.094 |
| GTTCTATA | 0.137 |
| AGATCAGG | -0.0654 |
| CTTGACCC | -0.0766 |
| AGCGTCAC | -0.0819 |
| CTTCATGC | 0.0226 |
| AATGACAT | 0.126 |
| CATTGAAC | 0.0343 |
| ACCTCAAG | 0.0492 |
| TAAAGTAA | -0.0473 |
| AAGAGCAA | -0.115 |
| ACATCGGT | -0.187 |
| GTGCGCAC | 0.172 |
| CGCTAAAA | 0.0304 |
| CCCATAGA | 0.0165 |
| ACCGCCAG | -0.0959 |
| AAGTGACG | 0.0876 |
| GAAAGTAA | -0.0444 |
| TCGTGACA | -0.19 |
| CCCCCGGG | -0.304 |

| Sequence | PBM E-score |
| --- | --- |
| AGCACGGG | -0.00766 |
| ACGTGCCG | -0.0425 |
| CAATAGAG | 0.0322 |
| CATACCTA | -0.0293 |
| AGAAGGTC | 0.0754 |
| GGAGCAGA | -0.0316 |
| AGAAGTAT | 0.124 |
| CGCGTAGA | 0.22 |
| ACCGAAGG | -0.0673 |
| GCCGAGGA | 0.117 |
| GAGGTGGA | -0.18 |
| TACTAAGA | 0.123 |
| CGAGTCCG | -0.0327 |
| AAGACTGG | -0.0909 |
| CGACAGAG | 0.0109 |
| TGGAGCCA | -0.23 |
| CAGGGGTC | 0.302 |
| CCTCGTCG | 0.0198 |
| AGATAGGC | -0.0082 |
| ACTGCAGA | -0.0354 |
| GGGTCCAC | 0.301 |
| AACTCGGC | 0.245 |
| CTAGTTAA | 0.0857 |
| CTGCGGAC | -0.114 |
| ACCACAGC | -0.0543 |

| Sequence | PBM E-score |
| --- | --- |
| CTGGAAAA | 0.0356 |
| CTACCTAC | 0.0419 |
| CACAGGTA | 0.0699 |
| GGGGTCAC | -0.0806 |
| CAAGCGGG | -0.108 |
| AACTACTT | 0.0815 |
| CAACGAAC | 0.126 |
| AGAGGAGA | -0.269 |
| AGAAATTA | 0.228 |
| CTGCCGGC | -0.0362 |
| GTGGAACA | -0.0101 |
| GAAACAGA | 0.04 |
| TACCCACA | -0.0533 |
| TCTCCCCA | -0.0411 |
| CAATAACC | 0.0677 |
| TAAGGGTA | 0.096 |
| GGCCGGTA | -0.0376 |
| ATGCCGGA | -0.138 |
| CCTTATAG | 0.00764 |
| ACCCTTCA | 0.0934 |
| CCATATCG | 0.192 |
| ACTAAGCC | -0.0209 |
| TAGATTGA | 0.0226 |
| ATGCAATC | 0.0876 |
| AAGGCGCG | -0.13 |

| Sequence | PBM E-score |
| --- | --- |
| ATTCCAAT | -0.0363 |
| AAACCCGC | 0.167 |
| CACACGAA | 0.0988 |
| CTTCTTTA | 0.0349 |
| CGTATGAA | 0.158 |
| ATGGACTA | 0.0039 |
| ACAGACTA | -0.1 |
| ACCAGAAG | -0.134 |
| ATACCTTC | -0.0248 |
| TGGTTACA | -0.168 |
| ACCTTCAG | -0.0553 |
| GTAAATTA | -0.132 |
| CAGGCCGC | -0.19 |
| CCGGCTCA | 0.0861 |
| ATGCCGAG | 0.0212 |
| ATTACGCC | -0.0353 |
| ACTGAGAC | -0.0859 |
| ATGGCTTC | -0.0329 |
| CTGCGAGC | 0.188 |
| TCGGTTAA | 0.113 |
| CGGGTGGA | 0.084 |
| AAATATCC | 0.0814 |

Some values from the results shown:
CTGCGAGC – PBM E-score: 0.188
CCGGCTCA – PBM E-score: 0.0861
